# Primary screen of a compound library

From ChEMBL document CHEMBL3988442, “University of Dundee, Small-Polar-MMV Screening Library” (2021).

Values are the deposited “Percent Effect”, in %.
How 0% and 100% were set is not recorded. Most values in the screen are low, and negative values occur.
Compounds were drawn at random from those tested, without regard to their results.
Two or more numbers in one place are separate tests of the same structure; such repeats can differ widely.

Mtb glucose medium: 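Growth of Mycobacterium tuberculosis over 3 days (7H9 medium with glucose and tyloxapol); the read-out is not stated. Tested at 50 µM. Direction is inferred from retests: higher values go with more growth inhibition. Of about 69,000 compounds tested this way, about 760 (1.1%) reached 50% or more in at least one test.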
Mtb cholesterol medium: 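Whole-cell growth test on Mycobacterium tuberculosis, read after 4 days in a medium based on cholesterol and the lipid DPPC; the read-out is not stated. Tested at 50 µM. Higher reads as more growth inhibition (inferred: compounds with an IC50 in retests scored well above the rest). Size under these conditions: about 69,000 compounds, about 370 of them at 50% or above in at least one test.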

For COc1cccc(CCNCc2c(C)nn(C)c2N(C)C)c1 the result was Mtb glucose medium: -19.7%; Mtb cholesterol medium: -24.31%. For COC1CCCN(C(=O)NCC(C)(C)SC)C1 (stereo not given) the result was Mtb glucose medium: -1.287%; Mtb cholesterol medium: -0.1433%. With CC(=O)N1CCCC1c1cc(N2CCN(CC(C)(C)C)CC2)cc(C)n1 (stereo not given) the screen gave Mtb glucose medium: 8.462%; Mtb cholesterol medium: 8.69%. With COCC1CN(C(=O)COc2ccccc2)Cc2cn(C)nc21.O=C(O)C(F)(F)F (stereo not given) the screen gave Mtb glucose medium: -11.59%; Mtb cholesterol medium: 5.556%. With Cc1cc(NCc2ccc(CS(N)(=O)=O)cc2)nc(C)n1 the screen gave Mtb glucose medium: -27.61% and 0.7675%; Mtb cholesterol medium: 2.595%. Result for Cn1cc(CN2CCC(c3ccncc3)CC2)cn1 was Mtb glucose medium: -6.007%; Mtb cholesterol medium: -11.23% and -6.479%.

O=C(CCc1ccccc1)NCC1CCN(Cc2ccccc2)CC1 gave Mtb glucose medium: 38.39%; Mtb cholesterol medium: 22.63%. Result for CC(C)c1nccn1C1CCCN(C(=O)c2ccc3[nH]cnc3c2)C1 (stereo not given) was Mtb glucose medium: -6.862%; Mtb cholesterol medium: 3.381%. Result for CC[C@@]1(O)CCN(C(=O)CCNC(=O)c2ccc(F)cc2)C[C@H]1O was Mtb glucose medium: -5.901% and -16.28%; Mtb cholesterol medium: -3.273%. For Cc1ccc(-c2ncc(C(=O)N3CCC[C@H](N)C3)c(O)n2)cc1 the result was Mtb glucose medium: -3.602% and -20.52%; Mtb cholesterol medium: -21.1%. Result for Cc1nn(-c2ccccc2)cc1C(=O)N1CCCC(n2ccnc2C)C1 (stereo not given) was Mtb glucose medium: 1.122%; Mtb cholesterol medium: 12.74%. CN(C)c1nc2n(c(=O)n1)CCN2C(=O)Nc1ccc(Cl)cc1 read Mtb glucose medium: -7.687%; Mtb cholesterol medium: 4.082%.

With O=C1C(N2CCN(c3ccccc3Cl)CC2)CCN1C1CCOCC1 (stereo not given) the screen gave Mtb glucose medium: -28.03%; Mtb cholesterol medium: -7.716%. For CNC(=O)C1(c2cnccn2)CCCN1C(=O)c1ccccn1 (stereo not given) the result was Mtb glucose medium: -12.45%; Mtb cholesterol medium: -10.92%. With COC(=O)c1ccc(Cl)c(CN(C)Cc2ncnn2C)c1 the screen gave Mtb glucose medium: -1.23%; Mtb cholesterol medium: 13.45%. With CSCC[C@@H](CO)NC(=O)c1sc(-c2ccc(Cl)cc2)nc1C the screen gave Mtb glucose medium: 15.33%; Mtb cholesterol medium: -4.021%. Result for [H][C@]12CC[C@]([H])(CN(CC(=O)Nc3ccn(C)n3)C1)N(CCOC)C2 was Mtb glucose medium: -15.11%; Mtb cholesterol medium: 14.22%. With CN(C)C(=O)NCc1ncn2c1CN(S(C)(=O)=O)CCC2 the screen gave Mtb glucose medium: -4.381% and 13.31%; Mtb cholesterol medium: -0.9011%.

CC(C)(C)c1ccc2c(c1)CCN2C(=O)c1ccc(=O)[nH]n1 read Mtb glucose medium: 13.04%; Mtb cholesterol medium: -9.74%. Cc1cc(CN(C)C(=O)NC2CCC(O)CC2)no1 (stereo not given) read Mtb glucose medium: 29.33%; Mtb cholesterol medium: 9.133%. Result for O=C(O)C(F)(F)F.O=C(O)C(F)(F)F.[H][C@@]12CN(CC3CC3)C[C@]1([H])[C@H](OC)CCN2S(=O)(=O)c1cccnc1 was Mtb glucose medium: 0.624%; Mtb cholesterol medium: -13.03% and 8.054%. COc1cc(C)ccc1S(=O)(=O)N[C@H]1CN(C(C)=O)C[C@@H]1C1CC1 read Mtb glucose medium: 16.91%; Mtb cholesterol medium: -12.69%. Cc1noc(Cl)c1CCC(=O)N1CCc2sccc2C1 gave Mtb glucose medium: 16.66%; Mtb cholesterol medium: 4.414%. COc1cc2c(nn1)CCN(Cc1nnc(Cc3ccccc3)o1)C2 gave Mtb glucose medium: -3.756% and -11.81%; Mtb cholesterol medium: -4.936%.

Result for Cc1nnc2n1CCN(CCS(=O)(=O)c1ccc(Cl)cc1)C2 was Mtb glucose medium: -13.65%; Mtb cholesterol medium: -11.81%.